Percent effect of library compounds

From ChEMBL document CHEMBL3988442, “University of Dundee, Small-Polar-MMV Screening Library” (2021).

Mtb cholesterol medium: 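Phenotypic screen: M. tuberculosis growth, cholesterol and DPPC medium, 4 days; the read-out is not stated. Tested at 50 µM. Higher reads as more growth inhibition (inferred: compounds with an IC50 in retests scored well above the rest). About 69,000 compounds were tested under these conditions; 0.54% (about 370) showed 50% or more at least once.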
Mtb glucose medium: 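Growth of Mycobacterium tuberculosis over 3 days (7H9 medium with glucose and tyloxapol); the read-out is not stated. Compounds at 50 µM. Higher reads as more growth inhibition (inferred: compounds with an IC50 in retests scored well above the rest). About 69,000 compounds were tested under these conditions; 1.1% (about 760) showed 50% or more at least once.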

Values are the deposited “Percent Effect”, in %. How 0% and 100% were set is not recorded. Most values in the screen are low, and negative values occur. Compounds were drawn at random from those tested, without regard to their results. Two or more numbers in one place are separate tests of the same structure; such repeats can differ widely.

structure: Cc1cc(CNC(=O)C2CC(=O)N(CCN(C)C)C2)cc(C)n1 (stereo not drawn)
Mtb cholesterol medium: -16.4%
Mtb glucose medium: 9.021%

structure: CC(NC(=O)CNc1cc2c(cc1Cl)OCCO2)c1ccco1 (stereo not drawn)
Mtb cholesterol medium: -2.721%
Mtb glucose medium: 11.59%

structure: CC(=O)N1CCC2(CC1)CN(C(=O)c1cccc3[nH]ccc13)CCO2
Mtb cholesterol medium: 4.054%
Mtb glucose medium: -19.94%

structure: CN1C(=O)[C@H](OC(N)=O)[C@@H](C(=O)Nc2ccccc2)C12CCNCC2
Mtb cholesterol medium: -6.638%
Mtb glucose medium: -1.125%

structure: CN1C(=O)c2ccc(NC(=O)CSc3ccc4c(c3)CCC4)cc2C1=O
Mtb cholesterol medium: -2.249%
Mtb glucose medium: -16.94% & -7.548%

structure: O=C1NC(c2cccnc2)=NC12CCN(CCCc1ccccc1)CC2
Mtb cholesterol medium: 8.261%
Mtb glucose medium: -2.943%

structure: Cc1oc(C)c(C(=O)N2CCCN(Cc3cscn3)CC2)c1C
Mtb cholesterol medium: -9.422%
Mtb glucose medium: -12.71%

structure: O=C(CCNC(=O)c1ccoc1)Nc1ccccc1F
Mtb cholesterol medium: 35%
Mtb glucose medium: 16.86%

structure: OC(CNCCn1cccn1)c1ccc(F)c(F)c1 (stereo not drawn)
Mtb cholesterol medium: -17.08%
Mtb glucose medium: 10.11%

structure: O=C(C[S+]([O-])Cc1ccccc1F)N1CCc2sccc2C1 (stereo not drawn)
Mtb cholesterol medium: 0.7409%
Mtb glucose medium: 9.159%

structure: CC(NC(N)=O)C(=O)N1CCCN(Cc2nccn2C(C)C)CC1 (stereo not drawn)
Mtb cholesterol medium: -17.71%
Mtb glucose medium: -2.457%

structure: O=C(O)C(F)(F)F.[H][C@]12C[C@@H](Cn3cncn3)N(C(C)C)[C@@]1([H])CCN(c1ncccn1)C2
Mtb cholesterol medium: 4.781%
Mtb glucose medium: -1.626% & -6.307%

structure: CCN(CC)C(CNS(=O)(=O)c1ccc(C(=O)NC)cc1)c1ccco1 (stereo not drawn)
Mtb cholesterol medium: -21.16% & -2.484%
Mtb glucose medium: -7.905%

structure: CC(C)N(C)C(=O)C1=NOC2(CCN(C(=O)c3ccccn3)C2)C1 (stereo not drawn)
Mtb cholesterol medium: -22.13%
Mtb glucose medium: -20.57%

structure: CCn1cc(CNC(=O)CC(C)C)cn1
Mtb cholesterol medium: -14.09%
Mtb glucose medium: 10.59%

structure: N#Cc1ccc(OC2CCN(C(=O)c3ccc(Br)o3)CC2)nc1
Mtb cholesterol medium: 5.064%
Mtb glucose medium: 6.087%

structure: CC(C)SCCNC(=O)c1cccc2ccnn12
Mtb cholesterol medium: 14.71%
Mtb glucose medium: 30.15%

structure: CCc1ccccc1OCCCN(C)C(=O)C1CCCN1C(N)=O (stereo not drawn)
Mtb cholesterol medium: -17.55%
Mtb glucose medium: 6.355%

structure: CNCc1cc(F)ccc1Oc1ccc(Cl)cc1
Mtb cholesterol medium: -5.799%
Mtb glucose medium: 1.521%

structure: Cc1n[nH]c(C)c1CNCC(O)c1cccc(Cl)c1.Cl (stereo not drawn)
Mtb cholesterol medium: -6.318%
Mtb glucose medium: -7.779% & 0.4962%

structure: COc1ccc(C)cc1C(=O)N1CCCC(n2nc(C)nc2C)C1 (stereo not drawn)
Mtb cholesterol medium: -9.119%
Mtb glucose medium: 3.559%

structure: Cc1n[nH]cc1CNC1(Cc2ccc(Br)cc2)CCCCC1
Mtb cholesterol medium: 9.766%
Mtb glucose medium: 5.983%

structure: [H][C@]12OCCN(C(=O)COc3ccccc3)[C@@]1([H])CC[C@@H]2OCC
Mtb cholesterol medium: 3.176%
Mtb glucose medium: 73.2%

structure: O=C(O)C(F)(F)F.O=C(O)C(F)(F)F.[H][C@@]12C[C@@H](OCc3cccnc3)CN1CCN(C(=O)c1cccc(F)c1)C2
Mtb cholesterol medium: -6.021%
Mtb glucose medium: 28.35%

structure: COc1ccc(OCCN(C)S(=O)(=O)N2CCOCC2)cc1
Mtb cholesterol medium: -0.1501%
Mtb glucose medium: 5.407% & 8.723%

structure: CCCOc1cc(Cl)c(CN2CCNC(C(=O)NC3CC3)C2)cc1OC (stereo not drawn)
Mtb cholesterol medium: 20.57%
Mtb glucose medium: 26% & 3.436%

structure: O=C(O)c1ccc2c(CN3CCOCC3)c[nH]c2c1
Mtb cholesterol medium: 10.31%
Mtb glucose medium: -35.5%

structure: Cc1cc(N2CCCC2c2cc(Nc3cnccn3)nc(C)n2)ncn1 (stereo not drawn)
Mtb cholesterol medium: -4.638%
Mtb glucose medium: 1.928%

structure: CN(CCCO)C(=O)c1cc(COc2ccc3c(c2)CCCC3)on1
Mtb cholesterol medium: 0.5215%
Mtb glucose medium: 22.58%

structure: Cc1nc(CN(C)C2CCN(CC(=O)N(C)CCC#N)C2)no1 (stereo not drawn)
Mtb cholesterol medium: -23.76%
Mtb glucose medium: -17.61% & -31.01%

structure: COc1ccc(-c2nnc(CNCCn3cc(C)cn3)o2)cc1
Mtb cholesterol medium: -19.93%
Mtb glucose medium: -24.45%

structure: N#Cc1ncn(CCC(=O)Nc2ccc(F)c(F)c2)n1
Mtb cholesterol medium: -2.365%
Mtb glucose medium: -4.679%

structure: c1cn(CCNc2nc(NC3CC3)nc3c2CCNCC3)nn1
Mtb cholesterol medium: 4.118%
Mtb glucose medium: 3.441%

structure: COc1cccc(CNC(C)Cn2cccn2)c1OC.Cl (stereo not drawn)
Mtb cholesterol medium: -2.265%
Mtb glucose medium: 33.73%

structure: Cc1cnn(CCNCc2cccc(C#N)c2)c1
Mtb cholesterol medium: 16.77%
Mtb glucose medium: -12.26%

structure: CN(Cc1ccc(F)cc1)C(=O)c1ccoc1CN1CCNC(=O)C1
Mtb cholesterol medium: -13.24%
Mtb glucose medium: -4.65% & 3.506%

structure: COCCCNc1c(-c2ccccc2)c(=O)c1=O
Mtb cholesterol medium: 7.865%
Mtb glucose medium: 10.24%

4 of the entries, repeated:

* O=C(O)C(F)(F)F.[H][C@]12C[C@@H](Cn3cncn3)N(C(C)C)[C@@]1([H])CCN(c1ncccn1)C2 | Mtb cholesterol medium: 4.781%; Mtb glucose medium: -1.626% & -6.307%
* Cc1nc(CN(C)C2CCN(CC(=O)N(C)CCC#N)C2)no1 (stereo not drawn) | Mtb cholesterol medium: -23.76%; Mtb glucose medium: -17.61% & -31.01%
* CCn1cc(CNC(=O)CC(C)C)cn1 | Mtb cholesterol medium: -14.09%; Mtb glucose medium: 10.59%
* O=C(C[S+]([O-])Cc1ccccc1F)N1CCc2sccc2C1 (stereo not drawn) | Mtb cholesterol medium: 0.7409%; Mtb glucose medium: 9.159%